According to paper doi:10.1101/354316:
Results are given in words; binding and its absence hold for the method and conditions named. In cells and extracts the contact can be indirect. Some entries that bind do so weakly or less than the wild type. For some of these results: Where a sequence is shown, tags or fusion partners need not be part of it. Values belong to the substance of their own block, whether it stands above or below them.

Amino acid sequences for entries named in this document (tags omitted).
UniProt Q8NF50: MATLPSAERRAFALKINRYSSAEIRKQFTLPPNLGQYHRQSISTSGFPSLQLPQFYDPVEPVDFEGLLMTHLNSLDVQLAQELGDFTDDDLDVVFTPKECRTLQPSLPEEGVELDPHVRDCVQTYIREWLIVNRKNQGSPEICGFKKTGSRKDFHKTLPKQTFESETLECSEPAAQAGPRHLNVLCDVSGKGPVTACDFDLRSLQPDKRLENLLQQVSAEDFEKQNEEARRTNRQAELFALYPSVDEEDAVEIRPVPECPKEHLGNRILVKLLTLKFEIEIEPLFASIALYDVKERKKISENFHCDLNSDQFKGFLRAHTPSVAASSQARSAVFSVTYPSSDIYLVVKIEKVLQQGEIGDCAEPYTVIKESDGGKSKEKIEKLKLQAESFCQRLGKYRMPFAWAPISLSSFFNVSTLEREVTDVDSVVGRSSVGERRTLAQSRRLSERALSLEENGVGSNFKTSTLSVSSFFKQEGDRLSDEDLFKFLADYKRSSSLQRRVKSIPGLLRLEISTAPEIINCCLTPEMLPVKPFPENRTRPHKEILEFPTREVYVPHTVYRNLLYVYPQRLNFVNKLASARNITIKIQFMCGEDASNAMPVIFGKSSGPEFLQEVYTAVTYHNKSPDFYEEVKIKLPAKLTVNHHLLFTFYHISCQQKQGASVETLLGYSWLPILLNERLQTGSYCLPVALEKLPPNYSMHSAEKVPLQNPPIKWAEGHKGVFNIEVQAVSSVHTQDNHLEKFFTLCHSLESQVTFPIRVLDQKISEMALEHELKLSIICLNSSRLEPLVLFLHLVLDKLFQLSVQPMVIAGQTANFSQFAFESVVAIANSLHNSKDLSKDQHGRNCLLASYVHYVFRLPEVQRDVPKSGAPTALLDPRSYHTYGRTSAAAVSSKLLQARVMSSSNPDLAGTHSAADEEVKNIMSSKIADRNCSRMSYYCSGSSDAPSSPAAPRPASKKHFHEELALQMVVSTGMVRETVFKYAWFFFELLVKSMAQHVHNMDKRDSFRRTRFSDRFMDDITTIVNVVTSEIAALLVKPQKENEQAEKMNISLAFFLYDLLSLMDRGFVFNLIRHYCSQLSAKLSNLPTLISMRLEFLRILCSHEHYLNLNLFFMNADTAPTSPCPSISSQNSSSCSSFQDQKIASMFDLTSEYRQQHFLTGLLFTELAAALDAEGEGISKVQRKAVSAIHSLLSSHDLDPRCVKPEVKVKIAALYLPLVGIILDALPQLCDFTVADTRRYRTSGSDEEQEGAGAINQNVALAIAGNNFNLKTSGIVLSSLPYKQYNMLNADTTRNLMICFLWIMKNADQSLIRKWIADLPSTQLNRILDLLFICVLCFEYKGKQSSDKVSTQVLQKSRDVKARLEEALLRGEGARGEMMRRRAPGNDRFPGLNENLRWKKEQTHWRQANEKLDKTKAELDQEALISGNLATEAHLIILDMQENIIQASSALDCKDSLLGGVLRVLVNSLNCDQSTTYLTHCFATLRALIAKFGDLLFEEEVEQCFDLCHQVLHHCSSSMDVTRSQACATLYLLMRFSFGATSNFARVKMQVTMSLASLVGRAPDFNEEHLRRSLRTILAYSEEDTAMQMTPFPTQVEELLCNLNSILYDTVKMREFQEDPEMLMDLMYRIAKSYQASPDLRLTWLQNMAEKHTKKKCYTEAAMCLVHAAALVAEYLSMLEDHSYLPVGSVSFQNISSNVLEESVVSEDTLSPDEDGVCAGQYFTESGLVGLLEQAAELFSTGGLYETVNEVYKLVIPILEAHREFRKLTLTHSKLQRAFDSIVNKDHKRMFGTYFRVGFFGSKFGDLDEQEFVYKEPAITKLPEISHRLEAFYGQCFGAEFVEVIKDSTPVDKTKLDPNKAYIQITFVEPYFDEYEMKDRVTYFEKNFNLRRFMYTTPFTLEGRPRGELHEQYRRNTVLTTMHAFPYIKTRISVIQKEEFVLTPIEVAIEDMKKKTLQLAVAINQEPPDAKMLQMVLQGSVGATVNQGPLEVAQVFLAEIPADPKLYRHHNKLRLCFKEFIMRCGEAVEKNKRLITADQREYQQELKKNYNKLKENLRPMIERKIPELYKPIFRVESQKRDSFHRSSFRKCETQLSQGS
UniProt Q96N67: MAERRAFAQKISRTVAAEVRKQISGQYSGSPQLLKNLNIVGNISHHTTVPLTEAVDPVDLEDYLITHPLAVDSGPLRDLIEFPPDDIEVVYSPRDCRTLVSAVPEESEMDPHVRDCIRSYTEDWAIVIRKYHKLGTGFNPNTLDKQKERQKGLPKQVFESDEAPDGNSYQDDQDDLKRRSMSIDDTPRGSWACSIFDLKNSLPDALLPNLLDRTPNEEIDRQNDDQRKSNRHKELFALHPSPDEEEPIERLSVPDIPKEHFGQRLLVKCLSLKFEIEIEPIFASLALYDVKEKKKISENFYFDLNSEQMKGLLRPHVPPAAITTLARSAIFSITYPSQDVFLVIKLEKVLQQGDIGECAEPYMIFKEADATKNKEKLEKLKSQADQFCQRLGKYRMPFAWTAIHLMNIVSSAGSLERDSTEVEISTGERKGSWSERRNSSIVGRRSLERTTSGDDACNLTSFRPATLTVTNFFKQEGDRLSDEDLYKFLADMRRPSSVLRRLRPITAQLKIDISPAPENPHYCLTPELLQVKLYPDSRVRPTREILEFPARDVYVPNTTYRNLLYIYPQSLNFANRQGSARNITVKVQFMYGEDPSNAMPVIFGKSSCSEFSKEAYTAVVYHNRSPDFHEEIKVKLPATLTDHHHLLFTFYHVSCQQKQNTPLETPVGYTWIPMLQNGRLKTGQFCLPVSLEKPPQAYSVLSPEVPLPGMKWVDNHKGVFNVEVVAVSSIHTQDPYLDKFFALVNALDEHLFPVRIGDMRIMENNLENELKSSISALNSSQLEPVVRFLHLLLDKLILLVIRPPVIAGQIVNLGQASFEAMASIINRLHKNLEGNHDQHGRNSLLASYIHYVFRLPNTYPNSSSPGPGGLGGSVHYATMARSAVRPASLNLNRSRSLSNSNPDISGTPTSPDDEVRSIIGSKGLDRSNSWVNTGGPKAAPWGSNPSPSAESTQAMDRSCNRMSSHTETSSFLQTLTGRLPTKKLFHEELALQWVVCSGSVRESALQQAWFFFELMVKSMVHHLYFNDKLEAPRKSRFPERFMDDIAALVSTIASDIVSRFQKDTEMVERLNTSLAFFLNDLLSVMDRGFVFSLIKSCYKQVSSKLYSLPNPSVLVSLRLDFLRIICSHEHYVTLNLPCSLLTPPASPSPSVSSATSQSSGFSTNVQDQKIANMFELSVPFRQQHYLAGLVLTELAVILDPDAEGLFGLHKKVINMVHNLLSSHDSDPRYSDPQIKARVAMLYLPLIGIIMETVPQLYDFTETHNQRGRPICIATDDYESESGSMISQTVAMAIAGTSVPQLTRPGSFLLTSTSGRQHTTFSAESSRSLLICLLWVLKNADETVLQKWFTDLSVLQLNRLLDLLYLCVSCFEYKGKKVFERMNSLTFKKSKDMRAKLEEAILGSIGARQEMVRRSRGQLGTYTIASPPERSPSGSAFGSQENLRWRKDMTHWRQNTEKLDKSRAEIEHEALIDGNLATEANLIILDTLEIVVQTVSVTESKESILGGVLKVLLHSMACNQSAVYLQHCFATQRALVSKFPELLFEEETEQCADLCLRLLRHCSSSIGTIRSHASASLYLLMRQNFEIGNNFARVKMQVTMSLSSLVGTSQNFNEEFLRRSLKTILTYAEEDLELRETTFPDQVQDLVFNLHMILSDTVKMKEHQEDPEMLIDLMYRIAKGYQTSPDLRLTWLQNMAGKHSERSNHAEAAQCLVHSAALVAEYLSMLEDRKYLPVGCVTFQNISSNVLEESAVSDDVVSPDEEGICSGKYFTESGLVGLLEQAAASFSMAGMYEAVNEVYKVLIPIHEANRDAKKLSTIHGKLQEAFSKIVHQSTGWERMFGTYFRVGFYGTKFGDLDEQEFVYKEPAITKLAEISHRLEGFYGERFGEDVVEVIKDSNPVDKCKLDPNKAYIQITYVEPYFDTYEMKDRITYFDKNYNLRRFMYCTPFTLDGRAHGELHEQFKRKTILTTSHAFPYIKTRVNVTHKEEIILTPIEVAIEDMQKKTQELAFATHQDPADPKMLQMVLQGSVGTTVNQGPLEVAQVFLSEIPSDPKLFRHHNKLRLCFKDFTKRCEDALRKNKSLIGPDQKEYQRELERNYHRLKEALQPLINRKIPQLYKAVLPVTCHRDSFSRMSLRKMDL
UniProt Q9NZN5: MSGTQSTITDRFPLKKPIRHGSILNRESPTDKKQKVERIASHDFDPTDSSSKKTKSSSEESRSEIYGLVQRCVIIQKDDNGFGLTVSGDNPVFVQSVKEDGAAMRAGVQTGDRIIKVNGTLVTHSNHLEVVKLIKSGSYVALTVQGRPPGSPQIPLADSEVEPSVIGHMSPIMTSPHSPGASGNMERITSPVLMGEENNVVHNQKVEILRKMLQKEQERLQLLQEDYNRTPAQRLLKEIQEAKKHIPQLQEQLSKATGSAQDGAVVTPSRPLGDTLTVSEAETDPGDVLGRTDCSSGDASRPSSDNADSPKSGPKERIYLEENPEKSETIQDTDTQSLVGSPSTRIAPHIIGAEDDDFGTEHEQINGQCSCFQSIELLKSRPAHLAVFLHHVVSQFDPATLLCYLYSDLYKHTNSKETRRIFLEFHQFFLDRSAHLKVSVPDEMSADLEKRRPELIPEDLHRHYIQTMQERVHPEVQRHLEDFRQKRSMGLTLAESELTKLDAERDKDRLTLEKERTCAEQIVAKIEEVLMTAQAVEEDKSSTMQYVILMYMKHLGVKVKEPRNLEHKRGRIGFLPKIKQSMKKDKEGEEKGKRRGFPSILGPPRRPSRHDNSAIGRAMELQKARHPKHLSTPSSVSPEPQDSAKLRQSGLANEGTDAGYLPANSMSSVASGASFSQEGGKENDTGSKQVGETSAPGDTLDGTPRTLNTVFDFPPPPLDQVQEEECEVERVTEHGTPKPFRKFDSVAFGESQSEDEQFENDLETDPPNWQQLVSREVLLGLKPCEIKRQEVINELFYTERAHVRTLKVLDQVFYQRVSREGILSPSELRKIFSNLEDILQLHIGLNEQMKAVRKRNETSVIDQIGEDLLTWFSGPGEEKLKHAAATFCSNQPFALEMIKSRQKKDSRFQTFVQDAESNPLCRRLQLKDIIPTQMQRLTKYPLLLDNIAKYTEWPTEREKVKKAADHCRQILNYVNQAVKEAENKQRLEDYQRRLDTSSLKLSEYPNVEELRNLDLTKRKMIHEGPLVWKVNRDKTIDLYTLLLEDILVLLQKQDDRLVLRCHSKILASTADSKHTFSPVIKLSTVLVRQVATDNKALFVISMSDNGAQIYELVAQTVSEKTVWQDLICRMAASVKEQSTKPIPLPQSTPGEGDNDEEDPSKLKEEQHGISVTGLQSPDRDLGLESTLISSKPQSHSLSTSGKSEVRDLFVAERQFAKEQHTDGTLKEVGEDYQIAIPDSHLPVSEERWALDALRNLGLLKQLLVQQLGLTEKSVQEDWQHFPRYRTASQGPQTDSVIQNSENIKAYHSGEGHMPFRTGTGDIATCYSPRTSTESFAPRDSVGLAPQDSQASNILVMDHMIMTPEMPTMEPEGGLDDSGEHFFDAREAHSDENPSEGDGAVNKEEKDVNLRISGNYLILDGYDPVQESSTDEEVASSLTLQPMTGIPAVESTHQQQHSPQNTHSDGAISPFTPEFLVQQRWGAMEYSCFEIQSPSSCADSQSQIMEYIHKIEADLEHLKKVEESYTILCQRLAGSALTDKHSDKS

Experiments:
Assay in all cases: co-IP
[1] = target: YFP-PLEKHG4B full-length (human) (UniProt Q96PX9)
[2] = target: T1, FLAG-tagged LRCH2 full-length (human) (UniProt Q5VUJ6)
T1 sequence: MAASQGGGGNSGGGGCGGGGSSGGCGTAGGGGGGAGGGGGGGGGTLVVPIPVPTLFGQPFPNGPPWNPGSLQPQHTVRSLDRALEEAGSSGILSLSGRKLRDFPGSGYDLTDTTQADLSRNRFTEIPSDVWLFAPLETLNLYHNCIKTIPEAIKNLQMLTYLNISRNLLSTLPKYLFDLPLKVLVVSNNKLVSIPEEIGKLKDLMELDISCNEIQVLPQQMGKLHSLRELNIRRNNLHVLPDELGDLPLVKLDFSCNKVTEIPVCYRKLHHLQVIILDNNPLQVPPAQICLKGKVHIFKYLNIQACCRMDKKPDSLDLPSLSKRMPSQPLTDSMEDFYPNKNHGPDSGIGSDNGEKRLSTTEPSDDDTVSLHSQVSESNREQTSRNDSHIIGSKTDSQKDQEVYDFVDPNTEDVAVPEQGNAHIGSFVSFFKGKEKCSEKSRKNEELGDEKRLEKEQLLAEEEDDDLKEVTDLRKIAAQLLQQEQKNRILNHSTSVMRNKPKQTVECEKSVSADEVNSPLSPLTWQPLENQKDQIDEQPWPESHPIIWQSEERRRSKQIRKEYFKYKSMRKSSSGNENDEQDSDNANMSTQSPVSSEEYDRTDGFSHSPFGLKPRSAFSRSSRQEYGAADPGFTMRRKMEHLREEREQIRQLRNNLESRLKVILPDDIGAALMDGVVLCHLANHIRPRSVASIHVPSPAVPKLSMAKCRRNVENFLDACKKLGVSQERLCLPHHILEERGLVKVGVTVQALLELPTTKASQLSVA

[3] = target: T2, FLAG-ARHGAP39 Y81A (human) (UniProt Q9C0H5)
T2 sequence: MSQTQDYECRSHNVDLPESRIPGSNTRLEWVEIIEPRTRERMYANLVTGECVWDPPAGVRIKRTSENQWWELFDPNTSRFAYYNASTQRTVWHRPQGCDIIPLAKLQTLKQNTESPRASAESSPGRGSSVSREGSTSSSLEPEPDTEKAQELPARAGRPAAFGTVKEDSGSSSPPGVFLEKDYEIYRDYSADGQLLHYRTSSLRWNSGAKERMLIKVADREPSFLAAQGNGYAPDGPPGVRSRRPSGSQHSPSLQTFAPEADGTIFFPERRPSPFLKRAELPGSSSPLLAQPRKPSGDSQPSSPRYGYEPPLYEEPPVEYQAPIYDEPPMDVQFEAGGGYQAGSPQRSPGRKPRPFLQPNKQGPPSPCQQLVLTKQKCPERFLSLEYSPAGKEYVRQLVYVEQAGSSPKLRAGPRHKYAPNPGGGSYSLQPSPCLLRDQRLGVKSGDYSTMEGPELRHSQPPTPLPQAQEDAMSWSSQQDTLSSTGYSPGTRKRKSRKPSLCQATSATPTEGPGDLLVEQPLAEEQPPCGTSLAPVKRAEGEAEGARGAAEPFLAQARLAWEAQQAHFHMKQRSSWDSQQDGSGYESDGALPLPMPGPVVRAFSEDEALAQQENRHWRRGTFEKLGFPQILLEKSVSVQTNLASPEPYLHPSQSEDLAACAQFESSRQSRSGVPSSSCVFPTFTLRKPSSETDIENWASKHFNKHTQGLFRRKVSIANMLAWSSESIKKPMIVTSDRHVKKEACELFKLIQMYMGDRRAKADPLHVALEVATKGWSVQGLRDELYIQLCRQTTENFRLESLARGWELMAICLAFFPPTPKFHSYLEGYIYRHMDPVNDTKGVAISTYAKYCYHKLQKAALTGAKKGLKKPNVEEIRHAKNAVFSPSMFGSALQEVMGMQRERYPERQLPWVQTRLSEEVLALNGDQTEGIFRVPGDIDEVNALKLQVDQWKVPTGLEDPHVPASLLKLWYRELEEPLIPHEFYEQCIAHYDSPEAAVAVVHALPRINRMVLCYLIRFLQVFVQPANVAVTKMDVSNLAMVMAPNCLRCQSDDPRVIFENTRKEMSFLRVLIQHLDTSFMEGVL

[4] = target: FLAG-ARHGAP39 wild type (human) (UniProt Q9C0H5)
[5] = target: T3, FLAG-LRCH4 (human) (UniProt O75427)
T3 sequence: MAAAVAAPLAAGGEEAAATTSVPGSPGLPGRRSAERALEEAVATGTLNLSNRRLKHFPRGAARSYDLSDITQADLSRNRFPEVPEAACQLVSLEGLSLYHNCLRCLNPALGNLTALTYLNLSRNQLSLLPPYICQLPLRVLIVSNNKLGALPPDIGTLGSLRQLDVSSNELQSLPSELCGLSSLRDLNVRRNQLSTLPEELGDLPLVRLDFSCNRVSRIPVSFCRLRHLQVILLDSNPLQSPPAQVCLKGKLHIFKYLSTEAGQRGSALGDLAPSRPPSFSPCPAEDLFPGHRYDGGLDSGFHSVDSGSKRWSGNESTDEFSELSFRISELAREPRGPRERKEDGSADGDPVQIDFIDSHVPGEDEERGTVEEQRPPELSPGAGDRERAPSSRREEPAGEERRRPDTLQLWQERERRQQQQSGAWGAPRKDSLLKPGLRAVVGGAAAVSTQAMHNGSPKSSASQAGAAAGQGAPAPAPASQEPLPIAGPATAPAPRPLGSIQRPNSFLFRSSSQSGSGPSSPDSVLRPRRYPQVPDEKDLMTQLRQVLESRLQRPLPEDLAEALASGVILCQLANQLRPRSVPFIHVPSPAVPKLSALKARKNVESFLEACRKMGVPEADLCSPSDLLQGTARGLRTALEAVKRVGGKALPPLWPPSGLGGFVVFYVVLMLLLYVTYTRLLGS

[6] = target: T4, FLAG-LRCH1 (human) (UniProt Q9Y2L9)
T4 sequence: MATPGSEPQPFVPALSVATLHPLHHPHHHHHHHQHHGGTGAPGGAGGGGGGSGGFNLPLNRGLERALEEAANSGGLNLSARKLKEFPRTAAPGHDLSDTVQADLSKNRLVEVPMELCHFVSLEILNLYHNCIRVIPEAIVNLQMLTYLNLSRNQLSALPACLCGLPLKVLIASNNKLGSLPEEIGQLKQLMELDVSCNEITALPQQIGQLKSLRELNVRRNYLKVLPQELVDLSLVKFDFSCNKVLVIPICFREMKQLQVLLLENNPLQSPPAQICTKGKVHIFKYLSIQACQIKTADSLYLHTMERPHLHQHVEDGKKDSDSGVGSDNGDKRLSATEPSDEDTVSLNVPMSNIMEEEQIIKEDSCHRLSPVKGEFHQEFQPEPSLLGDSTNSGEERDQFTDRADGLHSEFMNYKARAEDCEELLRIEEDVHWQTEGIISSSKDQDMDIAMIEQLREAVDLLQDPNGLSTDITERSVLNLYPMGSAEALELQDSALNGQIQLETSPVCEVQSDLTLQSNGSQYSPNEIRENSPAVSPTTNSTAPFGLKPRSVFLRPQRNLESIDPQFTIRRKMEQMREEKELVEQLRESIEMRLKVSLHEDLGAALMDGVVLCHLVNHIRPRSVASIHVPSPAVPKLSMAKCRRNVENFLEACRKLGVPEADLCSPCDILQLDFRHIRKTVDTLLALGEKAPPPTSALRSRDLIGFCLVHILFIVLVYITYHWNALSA

Substance: FLAG-ARHGEF11 full-length (from UniProt O15085 1-1522)
binding [1]: binds

Substance: YFP-DOCK8 (from UniProt Q8NF50 1-2099)
binding [2]: binds

Substance: YFP-PEAK1 (from UniProt Q9H792 1-1746)
binding [3]: no binding | binding [4]: binds

Substance: mCherry-DOCK7 (from UniProt Q96N67 1-2140)
binding [5]: binds | binding [2]: binds | binding [6]: binds

Next, values leading:

binding [1]: binds
Substance: FLAG-ARHGEF12 full-length (from UniProt Q9NZN5 1-1544)

binding [5]: binds
Substance: mCherry-DOCK6 (from UniProt Q96HP0 1-2047)

binding [5]: binds
Substance: mCherry-DOCK8 (from UniProt Q8NF50 1-2099)
